# Laboratory results from the supplement of paper PMC11438910.
# The other results are listed elsewhere or left out. The signal is at background level for most entries.
# B1: 3S41.4 (protein)
# chain 1: EVQLVESGGGLVQPGGSLRLSCATSGFTFSNYWMYWFRQAPGKGLEWVSTISGSSTNTYYSGSVKGRFTISRDNAKNTLYLQMNSLRAEDTAVYYCARRGTDSSHWYFDLWGPGTPITVSS
# chain 2: EIVMTQSPATLSLSPGERATLSCRASQSVSSNLAWYQQKPGQGPRLLIYDASNRATGIPDRFGGSGSGTDFTLTISSLEPEDVGVYYCQQESNWPLTFGGGTKVEIK
# Legend:
# Test in all cases: fluorescence intensity of antibody binding to polysaccharide-coupled beads; higher = stronger binding
# [1] = target: pneumococcal polysaccharide Pn34
# [2] = target: pneumococcal polysaccharide Pn35A
# [3] = target: pneumococcal polysaccharide Pn35B
# [4] = target: pneumococcal polysaccharide Pn35C
# [5] = target: pneumococcal polysaccharide Pn35F
# [6] = target: pneumococcal polysaccharide Pn36
# [7] = target: pneumococcal polysaccharide Pn37
# [8] = target: pneumococcal polysaccharide Pn38
# [9] = target: pneumococcal polysaccharide Pn39
# [10] = target: pneumococcal polysaccharide Pn4
# [11] = target: pneumococcal polysaccharide Pn40
# [12] = target: pneumococcal polysaccharide Pn41A
# [13] = target: pneumococcal polysaccharide Pn41F
# [14] = target: pneumococcal polysaccharide Pn42
# [15] = target: pneumococcal polysaccharide Pn43
# [16] = target: pneumococcal polysaccharide Pn44
# [17] = target: pneumococcal polysaccharide Pn45
# [18] = target: pneumococcal polysaccharide Pn46
# [19] = target: pneumococcal polysaccharide Pn47A
# [20] = target: pneumococcal polysaccharide Pn47F
# [21] = target: pneumococcal polysaccharide Pn48
# [22] = target: pneumococcal polysaccharide Pn5
# [23] = target: pneumococcal polysaccharide Pn6A
# [24] = antibody concentration 0.1 ng/mL
# [25] = antibody concentration 0.534724 ng/mL
# [26] = antibody concentration 2.8593 ng/mL
# [27] = antibody concentration 15.2894 ng/mL
# [28] = antibody concentration 81.7561 ng/mL
# [29] = antibody concentration 437.17 ng/mL
# [30] = antibody concentration 2337.65 ng/mL
# [31] = antibody concentration 12500 ng/mL
binder,measurement,setting,value
B1,fluorescence intensity,[1]; [24],14.5 MFI
same,fluorescence intensity,[1]; [25],13.2 MFI
same,fluorescence intensity,[1]; [26],14 MFI
same,fluorescence intensity,[1]; [27],13.5 MFI
same,fluorescence intensity,[1]; [28],14 MFI
same,fluorescence intensity,[1]; [29],12.5 MFI
same,fluorescence intensity,[1]; [30],15.5 MFI
same,fluorescence intensity,[1]; [31],22 MFI
same,fluorescence intensity,[2]; [24],19 MFI
same,fluorescence intensity,[2]; [25],17.5 MFI
same,fluorescence intensity,[2]; [26],16 MFI
same,fluorescence intensity,[2]; [27],16.2 MFI
same,fluorescence intensity,[2]; [28],16.5 MFI
same,fluorescence intensity,[2]; [29],17.2 MFI
same,fluorescence intensity,[2]; [30],23.5 MFI
same,fluorescence intensity,[2]; [31],75.8 MFI
same,fluorescence intensity,[3]; [24],18.5 MFI
same,fluorescence intensity,[3]; [25],17.5 MFI
same,fluorescence intensity,[3]; [26],17 MFI
same,fluorescence intensity,[3]; [27],17 MFI
same,fluorescence intensity,[3]; [28],18 MFI
same,fluorescence intensity,[3]; [29],18 MFI
same,fluorescence intensity,[3]; [30],24 MFI
same,fluorescence intensity,[3]; [31],53 MFI
same,fluorescence intensity,[4]; [24],19 MFI
same,fluorescence intensity,[4]; [25],19.5 MFI
same,fluorescence intensity,[4]; [26],20 MFI
same,fluorescence intensity,[4]; [27],20 MFI
same,fluorescence intensity,[4]; [28],18.5 MFI
same,fluorescence intensity,[4]; [29],19.5 MFI
same,fluorescence intensity,[4]; [30],22 MFI
same,fluorescence intensity,[4]; [31],31.5 MFI
same,fluorescence intensity,[5]; [24],20 MFI
same,fluorescence intensity,[5]; [25],19 MFI
same,fluorescence intensity,[5]; [26],17.5 MFI
same,fluorescence intensity,[5]; [27],18 MFI
same,fluorescence intensity,[5]; [28],16.5 MFI
same,fluorescence intensity,[5]; [29],20 MFI
same,fluorescence intensity,[5]; [30],20.5 MFI
same,fluorescence intensity,[5]; [31],28.2 MFI
same,fluorescence intensity,[6]; [24],15.5 MFI
same,fluorescence intensity,[6]; [25],14.5 MFI
same,fluorescence intensity,[6]; [26],15 MFI
same,fluorescence intensity,[6]; [27],17 MFI
same,fluorescence intensity,[6]; [28],15.5 MFI
same,fluorescence intensity,[6]; [29],15 MFI
same,fluorescence intensity,[6]; [30],18.5 MFI
same,fluorescence intensity,[6]; [31],53.5 MFI
same,fluorescence intensity,[7]; [24],25 MFI
same,fluorescence intensity,[7]; [25],24.5 MFI
same,fluorescence intensity,[7]; [26],24.5 MFI
same,fluorescence intensity,[7]; [27],24.5 MFI
same,fluorescence intensity,[7]; [28],25 MFI
same,fluorescence intensity,[7]; [29],27 MFI
same,fluorescence intensity,[7]; [30],41.5 MFI
same,fluorescence intensity,[7]; [31],206 MFI
same,fluorescence intensity,[8]; [24],25.5 MFI
same,fluorescence intensity,[8]; [25],25.8 MFI
same,fluorescence intensity,[8]; [26],25.5 MFI
same,fluorescence intensity,[8]; [27],26 MFI
same,fluorescence intensity,[8]; [28],26.5 MFI
same,fluorescence intensity,[8]; [29],26.8 MFI
same,fluorescence intensity,[8]; [30],30 MFI
same,fluorescence intensity,[8]; [31],54 MFI
same,fluorescence intensity,[9]; [24],20 MFI
same,fluorescence intensity,[9]; [25],18 MFI
same,fluorescence intensity,[9]; [26],18.5 MFI
same,fluorescence intensity,[9]; [27],17 MFI
same,fluorescence intensity,[9]; [28],17.2 MFI
same,fluorescence intensity,[9]; [29],19.5 MFI
same,fluorescence intensity,[9]; [30],22.2 MFI
same,fluorescence intensity,[9]; [31],56.5 MFI
same,fluorescence intensity,[10]; [24],17.5 MFI
same,fluorescence intensity,[10]; [25],16.8 MFI
same,fluorescence intensity,[10]; [26],17.5 MFI
same,fluorescence intensity,[10]; [27],16.5 MFI
same,fluorescence intensity,[10]; [28],17.5 MFI
same,fluorescence intensity,[10]; [29],20.5 MFI
same,fluorescence intensity,[10]; [30],25.5 MFI
same,fluorescence intensity,[10]; [31],46.8 MFI
same,fluorescence intensity,[11]; [24],16 MFI
same,fluorescence intensity,[11]; [25],16.5 MFI
same,fluorescence intensity,[11]; [26],15.5 MFI
same,fluorescence intensity,[11]; [27],16.5 MFI
same,fluorescence intensity,[11]; [28],15 MFI
same,fluorescence intensity,[11]; [29],16 MFI
same,fluorescence intensity,[11]; [30],20 MFI
same,fluorescence intensity,[11]; [31],60.8 MFI
same,fluorescence intensity,[12]; [24],22 MFI
same,fluorescence intensity,[12]; [25],23 MFI
same,fluorescence intensity,[12]; [26],23.5 MFI
same,fluorescence intensity,[12]; [27],21.5 MFI
same,fluorescence intensity,[12]; [28],22.2 MFI
same,fluorescence intensity,[12]; [29],24 MFI
same,fluorescence intensity,[12]; [30],25 MFI
same,fluorescence intensity,[12]; [31],31 MFI
same,fluorescence intensity,[13]; [24],11.5 MFI
same,fluorescence intensity,[13]; [25],12 MFI
same,fluorescence intensity,[13]; [26],13 MFI
same,fluorescence intensity,[13]; [27],12 MFI
same,fluorescence intensity,[13]; [28],13 MFI
same,fluorescence intensity,[13]; [29],13 MFI
same,fluorescence intensity,[13]; [30],15 MFI
same,fluorescence intensity,[13]; [31],27 MFI
same,fluorescence intensity,[14]; [24],10.5 MFI
same,fluorescence intensity,[14]; [25],11.5 MFI
same,fluorescence intensity,[14]; [26],10.5 MFI
same,fluorescence intensity,[14]; [27],12.5 MFI
same,fluorescence intensity,[14]; [28],11 MFI
same,fluorescence intensity,[14]; [29],12 MFI
same,fluorescence intensity,[14]; [30],12.8 MFI
same,fluorescence intensity,[14]; [31],32 MFI
same,fluorescence intensity,[15]; [24],15 MFI
same,fluorescence intensity,[15]; [25],15 MFI
same,fluorescence intensity,[15]; [26],14 MFI
same,fluorescence intensity,[15]; [27],14 MFI
same,fluorescence intensity,[15]; [28],15.2 MFI
same,fluorescence intensity,[15]; [29],17 MFI
same,fluorescence intensity,[15]; [30],24 MFI
same,fluorescence intensity,[15]; [31],97.2 MFI
same,fluorescence intensity,[16]; [24],23.5 MFI
same,fluorescence intensity,[16]; [25],23.5 MFI
same,fluorescence intensity,[16]; [26],23.2 MFI
same,fluorescence intensity,[16]; [27],23.5 MFI
same,fluorescence intensity,[16]; [28],25.2 MFI
same,fluorescence intensity,[16]; [29],24 MFI
same,fluorescence intensity,[16]; [30],26 MFI
same,fluorescence intensity,[16]; [31],36.2 MFI
same,fluorescence intensity,[17]; [24],10.5 MFI
same,fluorescence intensity,[17]; [25],11 MFI
same,fluorescence intensity,[17]; [26],11 MFI
same,fluorescence intensity,[17]; [27],11 MFI
same,fluorescence intensity,[17]; [28],10.5 MFI
same,fluorescence intensity,[17]; [29],11 MFI
same,fluorescence intensity,[17]; [30],13 MFI
same,fluorescence intensity,[17]; [31],21.5 MFI
same,fluorescence intensity,[18]; [24],23.2 MFI
same,fluorescence intensity,[18]; [25],22.5 MFI
same,fluorescence intensity,[18]; [26],22.5 MFI
same,fluorescence intensity,[18]; [27],23 MFI
same,fluorescence intensity,[18]; [28],23 MFI
same,fluorescence intensity,[18]; [29],23 MFI
same,fluorescence intensity,[18]; [30],25.5 MFI
same,fluorescence intensity,[18]; [31],60.5 MFI
same,fluorescence intensity,[19]; [24],14.5 MFI
same,fluorescence intensity,[19]; [25],16 MFI
same,fluorescence intensity,[19]; [26],15 MFI
same,fluorescence intensity,[19]; [27],15 MFI
same,fluorescence intensity,[19]; [28],16 MFI
same,fluorescence intensity,[19]; [29],15.5 MFI
same,fluorescence intensity,[19]; [30],16.5 MFI
same,fluorescence intensity,[19]; [31],25.5 MFI
same,fluorescence intensity,[20]; [24],11.5 MFI
same,fluorescence intensity,[20]; [25],11.5 MFI
same,fluorescence intensity,[20]; [26],11.8 MFI
same,fluorescence intensity,[20]; [27],11.5 MFI
same,fluorescence intensity,[20]; [28],11 MFI
same,fluorescence intensity,[20]; [29],12 MFI
same,fluorescence intensity,[20]; [30],15.5 MFI
same,fluorescence intensity,[20]; [31],42.5 MFI
same,fluorescence intensity,[21]; [24],19.8 MFI
same,fluorescence intensity,[21]; [25],20.8 MFI
same,fluorescence intensity,[21]; [26],21.5 MFI
same,fluorescence intensity,[21]; [27],18.5 MFI
same,fluorescence intensity,[21]; [28],21.2 MFI
same,fluorescence intensity,[21]; [29],21.5 MFI
same,fluorescence intensity,[21]; [30],28.2 MFI
same,fluorescence intensity,[21]; [31],52.8 MFI
same,fluorescence intensity,[22]; [24],8.5 MFI
same,fluorescence intensity,[22]; [25],8 MFI
same,fluorescence intensity,[22]; [26],8.5 MFI
same,fluorescence intensity,[22]; [27],8.75 MFI
same,fluorescence intensity,[22]; [28],9 MFI
same,fluorescence intensity,[22]; [29],9.75 MFI
same,fluorescence intensity,[22]; [30],12.5 MFI
same,fluorescence intensity,[22]; [31],51 MFI
same,fluorescence intensity,[23]; [24],20.2 MFI
same,fluorescence intensity,[23]; [25],21.5 MFI
same,fluorescence intensity,[23]; [26],20.8 MFI
same,fluorescence intensity,[23]; [27],21 MFI

# Seven records picked at random from those above, as already listed:
binder,measurement,setting,value
B1,fluorescence intensity,[17]; [30],13 MFI
same,fluorescence intensity,[15]; [25],15 MFI
same,fluorescence intensity,[10]; [26],17.5 MFI
same,fluorescence intensity,[4]; [29],19.5 MFI
same,fluorescence intensity,[2]; [30],23.5 MFI
same,fluorescence intensity,[13]; [29],13 MFI
same,fluorescence intensity,[23]; [25],21.5 MFI

# Reprinted from the listing for reference:
binder,measurement,setting,value
B1,fluorescence intensity,[10]; [27],16.5 MFI
same,fluorescence intensity,[10]; [28],17.5 MFI
